Measured data: PubChem BioAssay AID1259425 (University of Nebraska Medical Center, 2018)
Test: 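Seek colon cancer weak points whose silencing resembles KSR1 loss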 (primary screen). System: HCT116 human colon cancer cells. Reagents: siRNA pool against human genes, 50 nM siRNA. Detection: 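mRNA of six signature genes measured together by branched-DNA assay after 50 nM siRNA pool, blank removed, divided by geometric mean of two housekeeping genes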. Reading the numbers: BNIP3L mRNA: higher = more BNIP3L transcript after knockdown.
In all, the deposit lists about 14,000 reagents; shown is a random part of them. Further read-outs or replicates are left out here. Not stated in the record: the time to read-out.

gene symbol	BNIP3L mRNA, set 1
MT1B	0.123
ERAP1	0.0521
ZNF696	0.104
ZBTB18	0.0927
WBP11	0.191
NUP153	0.125
GPR31	0.0724
ATP2C1	0.0828
HTR6	0.232
PMF1	0.0877
FAM110A	0.277
PDIA3	0.0974
GRIP1	0.0938
TGFA	0.107
HERC4	0.101
COLQ	0.114
MAPKAPK3	0.125
IFNA21	0.23
FAM234B	0.0728
ATAD3A	0.0745
CAPN9	0.175
SLC23A2	0.0767
ARL4A	0.119
ADORA3	0.0826
SNCB	0.107
ZNF148	0.133
SOCS6	0.0819
UGT1A5	0.201
KRT18	0.0931
SUGT1	0.107
NR2C2	0.134
SIRT7	0.0571
TOR1AIP2	0.122
BRD1	0.0956
OTOF	0.179
FRS3	0.119
GPC6	0.192
SNX2	0.18
RFC2	0.123
TP53AIP1	0.183
SHFL	0.0909
MAPK13	0.166
RAMP3	0.125
ATP11A	0.0676
PXMP4	0.107
WDR45B	0.108
UGT1A9	0.122
LCAT	0.114
C6orf62	0.0886
MAF1	0.263
SLC12A5	0.18
CLGN	0.239
GLS	0.152
AMZ2	0.0837
OPA3	0.0724
POLR3A	0.148
MGAT4B	0.127
CELF1	0.13
CDC27	0.0925
LLGL1	0.151
CYP4F2	0.162
KATNIP	0.149
ELL2	0.151

Single entries from above:
Result for ATP11A in “BNIP3L mRNA, set 1”: 0.0676
LCAT, BNIP3L mRNA, set 1 = 0.114
Under “BNIP3L mRNA, set 1”, CDC27 is entered as 0.0925
For “BNIP3L mRNA, set 1”, GRIP1 is entered as 0.0938
TGFA, BNIP3L mRNA, set 1 = 0.107
Result of CELF1 in “BNIP3L mRNA, set 1”: 0.13
